These are yes or no findings as the source states them, for the method shown.
Target: HHIP-C Glu mutant (K277E/R328E/R350E/K569E/R610E/R613E) (human) (UniProt Q96QV1)
Test: AUC; sedimentation velocity; HHIP-C constructs at 1 mg/mL with 0.16 mM 30-mer heparin (dp30); 10 mM HEPES pH 7.5, 120 mM NaCl; 20 °C; c(s) distributions; both purified

binding: no binding
B1: HHIP-C Glu mutant (K277E/R328E/R350E/K569E/R610E/R613E) (domain or fragment, UniProt Q96QV1 213-670)
chain: KHNCFCIQEVVSGLRQPVGALHSGDGSQRLFILEKEGYVKILTPEGEIFKEPYLDIHKLVQSGIEGGDERGLLSLAFHPNYKKNGKLYVSYTTNQERWAIGPHDHILRVVEYTVSEKNPHQVDLRTARVFLEVAELHEKHLGGQLLFGPDGFLYIILGDGMITLDDMEEMDGLSDFTGSVLRLDVDTDMCNVPYSIPRSNPHFNSTNQPPEVFAHGLHDPGRCAVDRHPTDININLTILCSDSNGKNRSSARILQIIKGKDYESEPSLLEFKPFSNGPLVGGFVYRGCQSERLYGSYVFGDRNGNFLTLQQSPVTKQWQEKPLCLGTSGSCRGYFSGHILGFGEDELGEVYILSSSESMTQTHNGKLYKIVDPKRPLMPEECRATVQPAQTLTSECSELCENGYCTPTGKCCCSPGWEGDFCRTAKCEPACRHGGVCVRPNKCLCKKGYLGPQCEQVD

Reference: paper PMC8660895, “Hedgehog-Interacting Protein is a multimodal antagonist of Hedgehog signalling” (Nature Communications, 2021)
